This is one part of the list. Plates or batches differ in their baseline, so values are only roughly comparable.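 Hits were defined as a z-score below −3.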

In the assay the target is T1, YTHDF1 YTH domain (aa 365-554) (UniProt Q9BYJ9).
T1 sequence (whole entry): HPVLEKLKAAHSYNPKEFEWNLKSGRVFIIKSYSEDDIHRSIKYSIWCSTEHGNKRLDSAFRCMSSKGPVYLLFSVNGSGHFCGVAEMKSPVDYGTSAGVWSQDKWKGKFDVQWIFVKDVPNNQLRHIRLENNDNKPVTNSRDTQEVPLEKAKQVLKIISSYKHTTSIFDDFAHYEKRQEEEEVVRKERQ
Description: tryptophan fluorescence intensity z-score (mean); higher = higher fluorescence, less quenching (negative = binding / quenching). Conditions: 10 µM.
On to `CC(C)=CCC/C(C)=C/CC/C(C)=C/CC/C(C)=C/CC/C(C)=C/CC/C(C)=C/CC/C(C)=C/CC/C(C)=C/CC/C(C)=C/CO` (plate: M 19-20), for which the “tryptophan fluorescence intensity z-score” value was inactive: 0.539.
In the case of `CCOC(=O)CCCCCCCCCCCCC1C=CCC1` (configuration not stated) (plate: M 23-24) it was inactive: 0.5.
For `O=C(O)C(S)C(S)C(=O)O` (configuration not stated) (plate: M 23-24), the “tryptophan fluorescence intensity z-score” value is inactive: 0.181.
To `CCn1nc(C(=O)O)c(=O)c2cc3c(cc21)OCO3` (plate: M 1-2) belongs inactive: 0.114.
In the case of `Cc1cc(/C=C/c2ccc3cc(N(C)C)ccc3[n+]2C)c(C)n1-c1ccccc1` (plate: M 5-6) it was inactive: -0.575; in that of `O=c1c(-c2ccc(O)cc2)coc2c([C@@H]3O[C@H](CO)[C@@H](O)[C@H](O)[C@H]3O)c(O)ccc12` (plate: M 23-24), inactive: 0.501; in that of `C[C@H]1CC2C3CCC4=CC(=O)C=C[C@]4(C)[C@@]3(F)[C@@H](O)C[C@]2(C)[C@@]1(O)C(=O)COP(=O)(O)O` (some centres not stated) (plate: M 11-12), inactive: -0.146.
To `C[C@@H]1O[C@@H](O[C@H]2[C@H](O[C@H]3CC[C@@]4(C)[C@@H](CC[C@]5(C)[C@@H]4CC=C4[C@@H]6CC(C)(C)CC[C@]6(C(=O)O[C@@H]6O[C@H](CO[C@@H]7O[C@H](CO)[C@@H](O[C@@H]8O[C@@H](C)[C@H](O)[C@@H](O)[C@H]8O)[C@H](O)[C@H]7O)[C@@H](O)[C@H](O)[C@H]6O)CC[C@]45C)[C@]3(C)CO)OC[C@H](O)[C@@H]2O)[C@H](O)[C@H](O)[C@H]1O` (plate: M 19-20) belongs inactive: -0.0879; to `O=C(O[C@@H]1Cc2c(O)cc(O)cc2O[C@@H]1c1cc(O)c(=O)c2c(O)c(O)cc([C@H]3Oc4cc(O)cc(O)c4C[C@H]3O)c2c1)c1cc(O)c(O)c(O)c1` (plate: M 15-16), inactive: -0.779.
Regarding `COC(=O)CC[C@@H](C)[C@H]1CC[C@H]2[C@@H]3CC[C@@H]4C[C@H](O)CC[C@]4(C)[C@H]3C[C@H](O)[C@]12C` (plate: M 15-16), the “tryptophan fluorescence intensity z-score” value is inactive: -0.843.
In the case of `CC(C)C1=CC2=CC[C@@H]3[C@](C)(CCC[C@@]3(C)C(=O)O)[C@H]2CC1` (plate: M 19-20) it was inactive: 0.364; in that of `C[C@H]1C[C@H]2[C@@H]3CCC4=CC(=O)C=C[C@]4(C)[C@@]3(F)[C@@H](O)C[C@]2(C)[C@@]1(O)C(=O)CO` (plate: M 1-2), inactive: 0.483; in that of `C[C@@H]1O[C@@H](OC[C@H]2OC(Oc3c(-c4ccc(O)c(O)c4)oc4cc(O)cc(O)c4c3=O)[C@H](O)[C@@H](O)[C@@H]2O)[C@H](O)[C@H](O)[C@H]1O` (some centres not stated) [RUTOSIDE(rutin)] (plate: M 1-2), inactive: 0.816.
Consider `CO[C@@]12[C@H](COC(N)=O)C3=C(C(=O)C(C)=C(N)C3=O)N1C[C@@H]1N[C@@H]12` (plate: M 1-2), for which the “tryptophan fluorescence intensity z-score” value is inactive: 0.378.
In the case of `CC(C(=O)O)c1ccc(N2Cc3ccccc3C2=O)cc1` (configuration not stated) (plate: M 3-4) it was inactive: 0.159; in that of `Cc1ccc(Cl)c(Nc2ccccc2C(=O)O)c1Cl` (plate: M 3-4), inactive: -0.145.
In the case of `CCN1CCN(C(=O)N[C@@H](C(=O)N[C@@H]2C(=O)N3C(C(=O)O)=C(CSc4nnnn4C)CS[C@H]23)c2ccc(O)cc2)C(=O)C1=O` (plate: M 7-8), the “tryptophan fluorescence intensity z-score” value is inactive: 0.0156.
Turning to `CC1CC(OC(=O)C(O)c2ccccc2)CC(C)(C)N1C` (configuration not stated) (plate: M 13-14), the “tryptophan fluorescence intensity z-score” value is inactive: 0.387.
To `OC[C@H]1O[C@@H](n2cnc3c(NCc4ccco4)ncnc32)[C@H](O)[C@@H]1O` (plate: M 17-18) belongs inactive: 0.256; to `C1CCN2C[C@@H]3C[C@@H](CN4CCCC[C@@H]34)[C@H]2C1` (plate: M 1-2), inactive: 0.719; to `COc1cc(NS(C)(=O)=O)ccc1Nc1c2ccccc2nc2ccccc12` (plate: M 7-8), inactive: -0.898.
In the case of `CCN1CCN(c2cc3c(cc2F)c(=O)c(C(=O)O)cn3C2CC2)CC1` (plate: M 9-10) it was inactive: -0.438.
For the compound `Cc1nnc(NS(=O)(=O)c2ccc(N)cc2)s1` (plate: M 5-6), the “tryptophan fluorescence intensity z-score” value is inactive: -0.423.
As for `CC1(O)CC2C(CC1O)C2(C)C` (configuration not stated) (plate: M 19-20), the “tryptophan fluorescence intensity z-score” value is inactive: 0.467.
In the case of `C[C@@H]1C[C@H]2[C@@H]3CCC4=CC(=O)C=C[C@]4(C)[C@@]3(F)[C@@H](O)C[C@]2(C)[C@@]1(O)C(=O)CO` (plate: M 1-2) it was inactive: 0.0204; in that of `OC1(c2ccc(Cl)c(C(F)(F)F)c2)CCN(CCCC(c2ccc(F)cc2)c2ccc(F)cc2)CC1` (plate: M 11-12), inactive: -0.656.
Consider `NC1=NCCN1CC(=O)O` (plate: M 21-22), for which the “tryptophan fluorescence intensity z-score” value is inactive: 0.233.
To `CC1(C)O[C@@H]2C[C@H]3[C@@H]4CCC5=CC(=O)C=C[C@]5(C)[C@@]4(F)[C@@H](O)C[C@]3(C)[C@]2(C(=O)CO)O1` (plate: M 5-6) belongs inactive: -0.263; to `O=C(O)CCCc1ccccc1` (plate: M 23-24), inactive: 0.422; to `COc1ccc2cc(C(C)C(=O)O)ccc2c1` (configuration not stated) (plate: M 3-4), inactive: 0.103.
Turning to `C[C@H](CCC(=O)O)[C@H]1CC[C@H]2[C@@H]3CC[C@@H]4C[C@H](O)CC[C@]4(C)[C@H]3C[C@H](O)[C@]12C` (plate: M 13-14), the “tryptophan fluorescence intensity z-score” value was inactive: 0.165.
In the case of `CC(C)C[C@@H]1NC(=O)[C@H](CCCN)NC(=O)[C@H](C(C)C)NC(=O)[C@H](Cc2ccc(O)cc2)N[C@@H](CCC(=O)O)C(=O)N[C@@H](CC(N)=O)C(=O)[C@@H](Cc2ccccc2)NC(=O)[C@H](Cc2ccccc2)NC(=O)[C@@H]2CCCN2C(=O)[C@@H](Cc2ccccc2)NC1=O` (plate: M 5-6) it was inactive: -0.35; in that of `CC12CCC(CC1)C(C)(C)O2` (plate: M 21-22), inactive: 0.244; in that of `COC(=O)CC[C@@H](C)[C@H]1CC[C@H]2[C@@H]3[C@H](O)C[C@@H]4C[C@H](O)CC[C@]4(C)[C@H]3C[C@H](O)[C@]12C` (plate: M 17-18), inactive: -1.12.
Turning to `COc1c(O)cccc1O` (plate: M 15-16), the “tryptophan fluorescence intensity z-score” value was inactive: 0.458.
In the case of `O=C(O)C1=CCCNC1` (plate: M 21-22) it was inactive: 0.427; in that of `Cc1cc(CC(=O)O)n(C)c1C(=O)c1ccc(Cl)cc1` (plate: M 5-6), inactive: -0.381.
To `CCCCCCCCCCCCCCCC(=O)O[C@@H]1[C@@H](O)[C@@H](O)[C@@H]([C@H](NC(=O)[C@@H]2C[C@@H](CCC)CN2C)[C@H](C)Cl)O[C@@H]1SC` (plate: M 13-14) belongs inactive: 0.663.
To `CO/N=C(\C(=O)N[C@@H]1C(=O)N2C(C(=O)O)=C(COC(N)=O)CS[C@H]12)c1ccco1` (plate: M 7-8) belongs inactive: 0.0892; to `Nc1ccc(S(=O)(=O)Nc2ccnn2-c2ccccc2)cc1` (plate: M 23-24), inactive: 0.27.
As to `CC(=O)O[C@@H]1CC2C(C)(C)C(=O)C3OC3[C@]2(C)C2CC[C@@]3(C)[C@H](c4ccoc4)OC(=O)C4OC43[C@@]21C` (some centres not stated) (plate: M 13-14), the “tryptophan fluorescence intensity z-score” value is inactive: 0.227.
As to `CC1Cc2ccccc2N1NC(=O)c1ccc(Cl)c(S(N)(=O)=O)c1` (configuration not stated) (plate: M 3-4), the “tryptophan fluorescence intensity z-score” value was inactive: 0.0143.
To `CCC(=O)c1c(O)cc(O)cc1O` (plate: M 23-24) belongs inactive: -0.106; to `O=c1cc[nH]c(=S)[nH]1` (plate: M 23-24), inactive: 0.178; to `CCC(C(=O)O)c1ccccc1` (configuration not stated) (plate: M 23-24), inactive: 0.524.
To `CC1(C)CC[C@]2(C(=O)O)CC[C@]3(C)C(=CC[C@@H]4[C@@]5(C)CC[C@H](O)[C@@](C)(CO)[C@@H]5CC[C@]43C)[C@@H]2C1` (plate: M 19-20) belongs inactive: 0.856; to `CC[C@H]1OC(=O)[C@H](C)[C@@H](O[C@H]2C[C@@](C)(OC)[C@@H](O)[C@H](C)O2)[C@H](C)[C@@H](O[C@@H]2O[C@H](C)C[C@H](N(C)C)[C@H]2O)[C@](C)(O)C[C@@H](C)[C@@H]2N[C@@H](COCCOC)O[C@H]([C@H]2C)[C@]1(C)O` (plate: M 9-10), inactive: -0.105.
Take `O=C1CC2(CCCC2)CC(=O)N1CCCCN1CCN(c2ncccn2)CC1` (plate: M 11-12): the “tryptophan fluorescence intensity z-score” value was inactive: -0.213.
To `CC(C)/C(O)=C1/C(=O)O[C@@H](c2ccoc2)[C@]2(C)C(O)[C@@H](O)[C@@]34OC5(C)OC67CC(C)(C(O)[C@]6(O)[C@@H](O)[C@]3(O5)C12)[C@H](CC(=O)O)[C@]74C` (some centres not stated) (plate: M 13-14) belongs inactive: -0.00908.
In the case of `CS(=O)(=O)CCCCN=C=S` (plate: M 21-22) it was inactive: 0.0317; in that of `C[C@H]1C[C@@H]2[C@H]([C@@H](O)C[C@@]3(C)[C@H]2CC[C@]3(O)C(=O)CO)[C@@]2(C)C=CC(=O)C=C12` (plate: M 3-4), inactive: 0.142.
In the case of `O=[N+]([O-])c1cccc2cn[nH]c12` (plate: M 23-24) it was inactive: 0.0804.
As for `COc1ccccc1OCC(O)CN1CCN(CC(=O)Nc2c(C)cccc2C)CC1` (configuration not stated) (plate: M 11-12), the “tryptophan fluorescence intensity z-score” value is inactive: -0.186.
To `O=C(Nc1ccccc1)Nc1ccccc1` (plate: M 15-16) belongs inactive: 0.348; to `COc1cc([C@@H]2c3cc4c(cc3[C@@H](O[C@@H]3O[C@@H]5CO[C@@H](C)O[C@H]5[C@H](O)[C@H]3O)[C@H]3COC(=O)[C@H]23)OCO4)cc(OC)c1O` (plate: M 7-8), inactive: 0.382; to `CCCNCC(O)COc1ccccc1C(=O)CCc1ccccc1` (configuration not stated) (plate: M 9-10), inactive: -0.405.
In the case of `NC(=O)C(c1ccccc1)(c1ccccc1)[C@@H]1CCN(CCc2ccc3c(c2)CCO3)C1` (plate: M 11-12) it was inactive: 1.04.
